The other results are listed elsewhere or left out. Repeats are few or missing, and single values can be far off.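 Cells were imaged in 1,536-well plates, and nuclei stained with an antibody against cleaved PARP were counted against all DNA-stained nuclei to give the apoptosis fraction. Screening doses were chosen to leave most cells alive, and resting and induced cleaved-PARP levels differ strongly between cell lines.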
Test system: CBRC016 (line from a melanoma biopsy)
Experiment: cleaved PARP positive nuclei fraction relative to DMSO control; melanoma cells; higher = more apoptosis
Settings: library dose: low library concentration; 72 h

| Structure (SMILES) | cleaved PARP positive nuclei fraction [%] |
| --- | --- |
| N#Cc1c(O)c2c(-c3ccc(-c4ccccc4O)cc3)csc2[nH]c1=O + COc1cc2ncnc(Nc3ccc(Oc4ccccc4)cc3)c2cc1OC [SrcI1] (first compound 2 µM, partner dose 2 µM) | 91.3 |
| CN(NC(=O)CC(=O)NN(C)C(=S)c1ccccc1)C(=S)c1ccccc1 + CC(C)CCN1c2nc(Nc3cc(F)c(O)c(F)c3)ncc2N(C)C(=O)C1C [BID1870] (first compound 0.006 µM, partner dose 0.2 µM) | 153 |
| CCc1ccc(CCOc2ccc(CC3SC(=O)NC3=O)cc2)nc1 (stereo not given) [pioglitazone] + N#Cc1c(O)c2c(-c3ccc(-c4ccccc4O)cc3)csc2[nH]c1=O [A769662] (first compound 2 µM, partner dose 2 µM) | 89.4 |
| Oc1nc(-c2ccc(C(F)(F)F)cc2)nc2c1CSCC2 + CCCCCCCCCCCC1=C(O)C(=O)C=C(O)C1=O [Embelin] (first compound 2 µM, partner dose 1.2 µM) | 80.2 |
| CCN(CC)CCCCNc1ncc2cc(-c3cc(OC)cc(OC)c3)c(NC(=O)NC(C)(C)C)nc2n1 + Cn1cc(/C=C2\C(=O)Nc3cccnc32)c2ccccc21 [GW441756] (first compound 0.1 µM, partner dose 0.4 µM) | 79.5 |
| CCc1ccc(CCOc2ccc(CC3SC(=O)NC3=O)cc2)nc1 (stereo not given) [pioglitazone] + Cn1cc(/C=C2\C(=O)Nc3cccnc32)c2ccccc21 [GW441756] (first compound 2 µM, partner dose 0.4 µM) | 117 |
| COc1ccc(COc2ccc(Cc3cnc(N)nc3N)cc2OC)cc1 + COc1cc2ncnc(Nc3ccc(Oc4ccccc4)cc3)c2cc1OC [SrcI1] (first compound 1 µM, partner dose 2 µM) | 102 |
| O=S(=O)(c1ccccc1)N(CC(F)(F)F)c1ccc(C(O)(C(F)(F)F)C(F)(F)F)cc1 + COc1cc2ncnc(Nc3ccc(Oc4ccccc4)cc3)c2cc1OC [SrcI1] (first compound 1.4 µM, partner dose 2 µM) | 103 |
| COc1ccc2c(c1)CCC1C2CCC2(C)C(NCCCCCCN3C(=O)C=CC3=O)CCC12 (stereo not given) + Cn1cc(/C=C2\C(=O)Nc3cccnc32)c2ccccc21 [GW441756] (first compound 0.4 µM, partner dose 0.4 µM) | 139 |
| CN(NC(=O)CC(=O)NN(C)C(=S)c1ccccc1)C(=S)c1ccccc1 + Cc1cc([N+](=O)[O-])ccc1NS(=O)(=O)c1cc(Cl)ccc1Cl [FH535] (first compound 0.006 µM, partner dose 1 µM) | 392 |
| N#Cc1c(O)c2c(-c3ccc(-c4ccccc4O)cc3)csc2[nH]c1=O + c1cc(-c2cnn3cc(-c4ccc(OCCN5CCCCC5)cc4)cnc23)ccn1 [Dorsomorphin] (first compound 2 µM, partner dose 0.4 µM) | 187 |
| CCc1ccc(CCOc2ccc(CC3SC(=O)NC3=O)cc2)nc1 (stereo not given) [pioglitazone] + COc1ccc(COc2ccc(Cc3cnc(N)nc3N)cc2OC)cc1 [GW2580] (first compound 2 µM, partner dose 1 µM) | 63.4 |
| COc1cc2c(Oc3ccc4[nH]c(C)cc4c3F)ncnc2cc1OCCCN1CCCC1 [cediranib] + CCc1ccc(CCOc2ccc(CC3SC(=O)NC3=O)cc2)nc1 [pioglitazone] (first compound 0.4 µM, partner dose 2 µM) | 60 |
| COc1ccc(-c2ccc3c(N4CCOCC4)nc(N4C[C@@H](C)O[C@@H](C)C4)nc3n2)cc1CO + COc1cc2ncnc(Nc3ccc(Oc4ccccc4)cc3)c2cc1OC [SrcI1] (first compound 0.02 µM, partner dose 2 µM) | 29.4 |
| O=C(O)c1ccc(-c2c[nH]c3ncc(-c4ccccc4)cc23)cc1C1CCCC1 + O=S(=O)(c1ccccc1)N(CC(F)(F)F)c1ccc(C(O)(C(F)(F)F)C(F)(F)F)cc1 [T0901317] (first compound 0.16 µM, partner dose 1.4 µM) | 150 |
| COc1ccc(-c2ccc3c(N4CCOCC4)nc(N4C[C@@H](C)O[C@@H](C)C4)nc3n2)cc1CO + CCN(CC)CCCCNc1ncc2cc(-c3cc(OC)cc(OC)c3)c(NC(=O)NC(C)(C)C)nc2n1 [PD173074] (first compound 0.02 µM, partner dose 0.1 µM) | 39.5 |
| Oc1cc(-c2nc(-c3ccccc3)[nH]c2-c2ccncc2)ccc1Cl + O=C1NC(=O)/C(=C/c2ccc(-c3ccc(F)cc3O)o2)S1 [AS252424] (first compound 0.2 µM, partner dose 1 µM) | 46.5 |
| CCc1ccc(CCOc2ccc(CC3SC(=O)NC3=O)cc2)nc1 (stereo not given) [pioglitazone] + O=C(Nc1ccccc1)c1cc([N+](=O)[O-])ccc1Cl [GW9662] (first compound 2 µM, partner dose 2 µM) | 105 |
| COc1ccc2c(c1)CCC1C2CCC2(C)C(NCCCCCCN3C(=O)C=CC3=O)CCC12 (stereo not given) + O=C(O)C(=O)Nc1sc2c(c1C(=O)O)CCNC2 [TCS401] (first compound 0.4 µM, partner dose 1.66667 µM) | 50.6 |
| CN(C)S(=O)(=O)c1ccc2c(c1)/C(=C/c1cc3c([nH]1)CCCC3)C(=O)N2 + COc1cc(N2CCC(N3CCN(C)CC3)CC2)ccc1Nc1ncc(Cl)c(Nc2ccccc2S(=O)(=O)C(C)C)n1 [NVP-TAE684] (first compound 0.4 µM, partner dose 0.08 µM) | 58.6 |
| CN(C)S(=O)(=O)c1ccc2c(c1)/C(=C/c1cc3c([nH]1)CCCC3)C(=O)N2 + N#Cc1c(O)c2c(-c3ccc(-c4ccccc4O)cc3)csc2[nH]c1=O [A769662] (first compound 0.4 µM, partner dose 2 µM) | 112 |
| COc1ccc2c(c1)CCC1C2CCC2(C)C(NCCCCCCN3C(=O)C=CC3=O)CCC12 (stereo not given) + CC(C)CCN1c2nc(Nc3cc(F)c(O)c(F)c3)ncc2N(C)C(=O)C1C [BID1870] (first compound 0.4 µM, partner dose 0.2 µM) | 153 |
| CCc1ccc(CCOc2ccc(CC3SC(=O)NC3=O)cc2)nc1 (stereo not given) [pioglitazone] + Oc1cc(-c2nc(-c3ccccc3)[nH]c2-c2ccncc2)ccc1Cl [L779450] (first compound 2 µM, partner dose 0.2 µM) | 46 |
| CCc1ccc(CCOc2ccc(CC3SC(=O)NC3=O)cc2)nc1 (stereo not given) [pioglitazone] + CC(C)CCN1c2nc(Nc3cc(F)c(O)c(F)c3)ncc2N(C)C(=O)C1C [BID1870] (first compound 2 µM, partner dose 0.2 µM) | 131 |
| CN(NC(=O)CC(=O)NN(C)C(=S)c1ccccc1)C(=S)c1ccccc1 + O=c1cc(-c2cccc3c2Sc2ccccc2S3)oc(N2CCOCC2)c1 [KU55933] (first compound 0.006 µM, partner dose 1 µM) | 163 |
| O=C(O)c1ccc(-c2c[nH]c3ncc(-c4ccccc4)cc23)cc1C1CCCC1 + Oc1nc(-c2ccc(C(F)(F)F)cc2)nc2c1CSCC2 [XAV939] (first compound 0.16 µM, partner dose 2 µM) | 168 |
| COc1ccc(COc2ccc(Cc3cnc(N)nc3N)cc2OC)cc1 + COc1cc(N2CCC(N3CCN(C)CC3)CC2)ccc1Nc1ncc(Cl)c(Nc2ccccc2S(=O)(=O)C(C)C)n1 [NVP-TAE684] (first compound 1 µM, partner dose 0.08 µM) | 15.9 |
| COc1ccc2c(c1)CCC1C2CCC2(C)C(NCCCCCCN3C(=O)C=CC3=O)CCC12 (stereo not given) + c1cc(-c2cnn3cc(-c4ccc(OCCN5CCCCC5)cc4)cnc23)ccn1 [Dorsomorphin] (first compound 0.4 µM, partner dose 0.4 µM) | 78.5 |
| NCC(=O)Nc1ccc(-n2nc(C(F)(F)F)cc2-c2ccc3c(ccc4ccccc43)c2)cc1 + COc1ccc(COc2ccc(Cc3cnc(N)nc3N)cc2OC)cc1 [GW2580] (first compound 1 µM, partner dose 1 µM) | 75.5 |
| COc1cc2ncnc(Nc3ccc(Oc4ccccc4)cc3)c2cc1OC + COc1cc(N2CCC(N3CCN(C)CC3)CC2)ccc1Nc1ncc(Cl)c(Nc2ccccc2S(=O)(=O)C(C)C)n1 [NVP-TAE684] (first compound 2 µM, partner dose 0.08 µM) | 79.7 |

Quoted from above for reference:

| Structure (SMILES) | cleaved PARP positive nuclei fraction [%] |
| --- | --- |
| N#Cc1c(O)c2c(-c3ccc(-c4ccccc4O)cc3)csc2[nH]c1=O + c1cc(-c2cnn3cc(-c4ccc(OCCN5CCCCC5)cc4)cnc23)ccn1 [Dorsomorphin] (first compound 2 µM, partner dose 0.4 µM) | 187 |
| CCc1ccc(CCOc2ccc(CC3SC(=O)NC3=O)cc2)nc1 (stereo not given) [pioglitazone] + COc1ccc(COc2ccc(Cc3cnc(N)nc3N)cc2OC)cc1 [GW2580] (first compound 2 µM, partner dose 1 µM) | 63.4 |
| COc1cc2c(Oc3ccc4[nH]c(C)cc4c3F)ncnc2cc1OCCCN1CCCC1 [cediranib] + CCc1ccc(CCOc2ccc(CC3SC(=O)NC3=O)cc2)nc1 [pioglitazone] (first compound 0.4 µM, partner dose 2 µM) | 60 |
| COc1ccc(-c2ccc3c(N4CCOCC4)nc(N4C[C@@H](C)O[C@@H](C)C4)nc3n2)cc1CO + COc1cc2ncnc(Nc3ccc(Oc4ccccc4)cc3)c2cc1OC [SrcI1] (first compound 0.02 µM, partner dose 2 µM) | 29.4 |
| O=C(O)c1ccc(-c2c[nH]c3ncc(-c4ccccc4)cc23)cc1C1CCCC1 + O=S(=O)(c1ccccc1)N(CC(F)(F)F)c1ccc(C(O)(C(F)(F)F)C(F)(F)F)cc1 [T0901317] (first compound 0.16 µM, partner dose 1.4 µM) | 150 |
| COc1ccc(-c2ccc3c(N4CCOCC4)nc(N4C[C@@H](C)O[C@@H](C)C4)nc3n2)cc1CO + CCN(CC)CCCCNc1ncc2cc(-c3cc(OC)cc(OC)c3)c(NC(=O)NC(C)(C)C)nc2n1 [PD173074] (first compound 0.02 µM, partner dose 0.1 µM) | 39.5 |
| Oc1cc(-c2nc(-c3ccccc3)[nH]c2-c2ccncc2)ccc1Cl + O=C1NC(=O)/C(=C/c2ccc(-c3ccc(F)cc3O)o2)S1 [AS252424] (first compound 0.2 µM, partner dose 1 µM) | 46.5 |

From the supplement of paper PMC4604168 (melanoma cell lines)
